# Assay results: PubChem BioAssay AID2685 (National Center for Advancing Translational Sciences (NCATS), 2010)
# The other results are listed elsewhere or left out. The main result of the screen is listed elsewhere. These columns were measured beside it and carry no call. The list favours compounds with an active or inconclusive main result. The note in brackets gives the kind of curve behind each potency; many fits are weak.
# Assay: qHTS Assay for Lipid Storage Modulators in Drosophila S3 Cells;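 on cell number change: cells counted by Cell Tracker Red CMTPX staining in the red channel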
# Conditions: BODIPY lipid droplet fluorescence, 18-24 h; for cell number change: measured here: cell count max response, cells fed with added oleic acid
# Text: NIH Molecular Libraries Probe Production Centers Network [MLPCN] NIH Chemical Genomics Center [NCGC] MLPCN Grant: 1 R03 MH085686-01 Assay Submitter (PI): Beller, Mathias; Max-Planck-Institut fur Biophysikalische Chemie NCGC Assay Overview: Storing lipids as a reservoir for energy or the anabolism of elementary metabolites is a common feature of probably all cells and is conserved from bacteria to humans. The universal cellular lipid storage organelle is the so-called lipid storage droplet (LD). Although ubiquitous, LDs share a simple structure composed of a hydrophobic core that harbors the storage lipids, which is shielded by a droplet-specific phospholipid monolayer to which proteins are attached. The current model of LD biogenesis involves an incorporation of the lipid core into the membrane leaflets of the endoplasmic reticulum (ER) followed by a subsequent budding-like maturation of a LD, which ultimately pinches off. Once released, LD volume can increase by localized lipogenesis or fusion of existing droplet. Storage lipids are re-mobilized enzymatically by lipase activity. Lipase regulation in the adipocyte is heavily studied and involves multiple components including catecholamine signaling, the LD-associated proteins Perilipin and comparative gene identification (CGI-58) and at least two lipases named hormone sensitive lipase (HSL) and adipocyte triglyceride lipase (ATGL). LD regulation outside of the adipocyte is poorly understood and only few components are known. However, there is an urgent need to learn more about ectopic fat depots as mislocalized storage of lipids, for example in the liver or muscle, is an eminent health problem associated with insulin resistance or the metabolic syndrome. We developed a laser-scanning cytometer assay to enable 1,536-well screening and combined the results of the small molecules screen with an RNAi database based on lipid storage.
# Triacsin C (Sigma-Aldrich T-4540), an inhibitor of long-chain fatty acyl CoA synthetase that blocks synthesis of triglycerides, was used as a positive control for lipid under-storage. A total of 23 nL of compound solution of different concentrations were transferred to the assay plates using a Kalypsys pin tool equipped with a 1,536-pin array containing 10-nL slotted pins (FP1S10, 0.457-mm diameter, 50.8 mm long; V&P Scientific). One microliter of oleic acid (400 uM) was added, and the plate was lidded with stainless steel rubber gasket lined lids containing pinholes. […] Fluorescence was detected by excitation of the fluorophores with a 488-nm laser on an Acumen Explorer (TTP Lab Tech). The total intensity in channel 2 (500-530 nm) reflected lipid droplet accumulation. Cells were detected using channel 3 (575-640 nm) with 5-um width and 100-um depth filters. The ratio of the number of objects in PMT channel 2 over the number of objects in PMT channel 3 was also calculated. Percent activity was computed relative to an internal control (100% inhibited lipid droplet deposition due to the presence of 20 uM Triacsin C), which was added to 32 wells/plate.
# [1] = measured here: lipid fluorescence (Fed channel) AC50, cells fed with added oleic acid
# [2] = measured here: cell number channel AC50, cells fed with added oleic acid
Structure (SMILES),cell number change [%],AC50 [1],AC50 [2]
CCOC(=O)c1nnn(-c2nonc2N)c1CNc1ccc(C)c(Br)c1,-7.91,"29.1 µM [rising, partial curve, poor fit]",–
CCCOc1ccc(NC(=O)CC2C(=O)N(CC)C(=S)N2CCCN2CCN(Cc3ccccc3)CC2)cc1 (stereo not drawn),-57.3,"18.4 µM [falling, partial curve]","13 µM [falling, partial curve]"
COc1ccccc1N1CCN(C(=O)c2cc3c(=O)n4cccc(C)c4nc3s2)CC1,7.08,"0.116 µM [falling, single point]",–
CC1=C(C(N)=O)C(c2ccc3c(c2)OCO3)n2nc(-c3cccc(C)c3)nc2N1 (stereo not drawn),29.8,"0.411 µM [rising, full curve, poor fit]",–
O=C(Cn1c(=O)oc2ccccc21)Nc1ccc(Cl)cc1Cl,-3.28,"18.4 µM [rising, single point]",–
CCN(CC)S(=O)(=O)c1cccc(-c2nnc(SCCOc3ccc(Cl)cc3)o2)c1,-2.4,–,–
CCn1c(CNC(=O)c2ccc3c(c2)OCO3)nnc1SCC(=O)Nc1ccccc1F,-4.27,"0.00461 µM [rising, full curve, poor fit]",–
C=CCOC(=O)Nc1ccc(Cl)cc1NC(=O)OCC=C,5.36,"1.84 µM [rising, partial curve, poor fit]","6.51 µM [rising, single point]"
Cc1cccc(-c2noc(CN(C)C(=O)c3ccc4c(c3)OCO4)n2)c1,7.08,–,–
CCc1cccc(CC)c1NC(=S)NCCc1c(C)[nH]c2ccccc12,-25.1,–,"3.66 µM [falling, full curve, poor fit]"
CCOC(=O)C1CCCN(CC(=O)c2c[nH]c3ccc(C)cc23)C1 (stereo not drawn),18.2,"1.64 µM [rising, partial curve]",–
CC1CN(C2CCN(S(=O)(=O)Cc3ccccc3)CC2)CC(C)O1 (stereo not drawn),1.86,"0.13 µM [falling, full curve, poor fit]",–
COc1cccc(CN2CCC(Oc3ccc(C(=O)NCc4ccccn4)cc3)CC2)c1,–,"6.51 µM [rising, single point]",–
CC(C)/C=N/NC(=O)c1cc(Br)ccc1O,-10.1,"1.03 µM [falling, full curve, poor fit]","6.51 µM [rising, single point]"
COc1ccccc1/C=C/CN1CCCC(CO)(Cc2cccc(Cl)c2)C1 (stereo not drawn),-37.1,"32.6 µM [falling, single point]","32.6 µM [falling, single point]"
Cn1c(CNS(=O)(=O)c2cccc(Cl)c2)cc(=O)n(C)c1=O,-27.4,–,"0.366 µM [falling, full curve, poor fit]"
COc1cc(OC)cc(C(=O)O/N=C(\N)c2ccncc2)c1,8.38,"4.61 µM [rising, single point]",–
O=[N+]([O-])c1cc(Br)c(O)c(/C=N/Nc2nnnn2-c2cccc3ccccc23)c1,-13.9,"0.13 µM [falling, full curve, poor fit]",–
Cn1nc(-c2ccccc2)c(/C=N/O)c1Cl,5.19,–,–
CCn1c(SCC(=O)N2CCN(c3ccccc3)CC2)nnc1-c1cc2cc(Cl)ccc2o1,-15.9,"6.51 µM [rising, single point]",–

# Structures listed so far containing an NH in an aromatic ring (two):
Structure (SMILES),cell number change [%],AC50 [1],AC50 [2]
CCc1cccc(CC)c1NC(=S)NCCc1c(C)[nH]c2ccccc12,-25.1,–,"3.66 µM [falling, full curve, poor fit]"
CCOC(=O)C1CCCN(CC(=O)c2c[nH]c3ccc(C)cc23)C1 (stereo not drawn),18.2,"1.64 µM [rising, partial curve]",–

# (list continues)

Structure (SMILES),cell number change [%],AC50 [1],AC50 [2]
CCOc1ccccc1C(=O)Nc1ccc(S(=O)(=O)N2CCN(C)CC2)cc1,-6.32,"29.1 µM [falling, single point]",–
CC1CC(NC(=O)c2cc3c(=O)n4ccccc4nc3n2C)CC(C)(C)C1 (stereo not drawn),–,"11.6 µM [falling, partial curve]",–
COc1ccc(F)cc1C(=O)COC(=O)c1n[nH]c(=O)c2ccccc12,-6.01,"1.3 µM [rising, full curve]",–
COC(=O)C1C(c2ccccc2)C=CC(c2ccccc2)C1C(=O)O (stereo not drawn),-17.2,"13 µM [falling, single point]",–
CCOC(=O)C1CCN(C(=O)c2cccc(S(=O)(=O)Nc3ccc(C)cc3C)c2)CC1,–,–,"6.51 µM [rising, single point]"
N#C/C(=C\c1cccs1)C(=O)c1ccccc1Cl,-59.7,"25.9 µM [falling, partial curve]","29.1 µM [falling, single point]"
Cc1nnsc1C(=O)Nc1cccc(Cl)c1C,26.5,"13 µM [rising, partial curve, poor fit]",–
OC(CNC1Cc2ccccc2C1)COc1ccc(F)cc1 (stereo not drawn),61.7,–,"29.1 µM [rising, single point]"
CCOC(=O)c1c(C)[nH]c(C)c1C(=O)COC(=O)c1ccc(OC)c(OC)c1,31.6,–,–
COc1ccc(Br)cc1/C=C/c1ccc2cccc(O)c2n1,-10.6,"3.66 µM [falling, full curve]",–
COC1(C)CC2C(CC1OC(=O)c1cc([N+](=O)[O-])cc([N+](=O)[O-])c1)C2(C)C (stereo not drawn),-34.7,"20.6 µM [falling, single point]","1.46 µM [falling, partial curve, poor fit]"
CN(C)c1ccc(C(C(=O)NCC2CCCO2)N(C(=O)c2snc(C(N)=O)c2N)c2ccc3c(c2)OCO3)cc1 (stereo not drawn),19.6,"0.411 µM [rising, single point]",–
CNC(=O)CSc1nnc(CCc2ccccc2)n1-c1ccccc1,-14.9,"18.4 µM [rising, single point]",–
CC1CCN(S(=O)(=O)N2CCC(C(=O)NCCN3CCOCC3)CC2)CC1,14,"3.26 µM [falling, single point]",–
O=C(CCc1n[nH]c(=O)[nH]c1=O)N1CCOCC1,-82.7,"29.1 µM [falling, partial curve, poor fit]","5.8 µM [falling, full curve]"
Cc1ccc(S(=O)(=O)c2nc(S(C)(=O)=O)sc2NCC2CCCO2)cc1 (stereo not drawn),7.82,–,–
CCn1c(=O)n(CC)c2cc(N3CCCC3)c(NC(=O)c3cc(Cl)ccc3OC)cc21,–,"4.11 µM [falling, full curve]",–
CCCCOC(=O)Cc1c(O)c2ccccc2[nH]c1=O,-9.65,"29.1 µM [falling, single point]",–
CC(Cc1cccs1)NC(=O)Nc1cccc(Cl)c1 (stereo not drawn),-12.9,–,–
COc1ccc(NC(=O)N2CCC(c3nc4ccccc4[nH]3)CC2)cc1,5.56,"0.651 µM [falling, single point]","0.731 µM [falling, single point]"

Structure (SMILES),cell number change [%],AC50 [1],AC50 [2]
CC(=O)Oc1ccccc1/C=C/c1nc2ccccc2c(=O)o1,24.7,"5.17 µM [rising, partial curve, poor fit]",–
O=C(CC1Oc2ccccc2NC1=O)NCCCN1CCOCC1 (stereo not drawn),-19.9,"0.00461 µM [falling, full curve, poor fit]",–
CCCC(C)(C)NC(=O)CCCCC(=O)NC(C)(C)CCC,-14.8,"25.9 µM [falling, single point]",–
COc1cccc(C(C(=O)NC(C)(C)C)N(C(=O)CCC(=O)Nc2cc(C)on2)c2ccc3c(c2)OCCO3)c1OC (stereo not drawn),15.8,–,–
N#Cc1cccc(NS(=O)(=O)c2ccccc2Cl)c1,5.55,"16.4 µM [rising, single point]","6.51 µM [rising, single point]"
CCOC(=O)c1c(S(=O)(=O)N2CCN(c3ccc(C(C)=O)cc3)CC2)c(C)n(C)c1C,–,"6.51 µM [falling, single point]",–
FC(F)(F)c1ccccc1NC(=S)N1CCCCCC1,-3.18,"5.8 µM [rising, single point]",–
Cc1ccc(-n2c(-c3ccccc3)cc(/C=N/NC(=O)CC#N)c2-c2ccccc2)cc1,15.3,–,"0.00461 µM [rising, full curve, poor fit]"
COc1cccc(C2c3[nH]c4ccccc4c3C[C@H]3C(=O)N(CCCOC(C)C)CC(=O)N23)c1 (stereo partly drawn),38.7,–,"2.59 µM [rising, single point]"
COC(=O)c1ccc(C2C(Oc3ccc(OC)cc3)C(=O)N2CCc2ccc(OC)c(OC)c2)cc1 (stereo not drawn),3.49,"32.6 µM [falling, single point]",–
Cc1nn(C)c(C)c1S(=O)(=O)N1CCC(CO)(Cc2ccc(Cl)cc2)CC1,-18.1,"29.1 µM [falling, single point]",–
O=C(CN1CCOCC1)N/N=C/c1ccc(-c2ccc(C(=O)O)cc2)o1,-13.7,–,–
CC1CCCC(C)N1C(=O)Cn1nnc(-c2ccc([N+](=O)[O-])cc2)n1 (stereo not drawn),-14.6,"4.61 µM [falling, single point]",–
O=C(Nc1c(C(=O)NCc2ccco2)cnn1-c1ccccc1)c1cccc(F)c1,-9.73,–,–
COc1ccccc1NC(=O)CN1C(=O)C(C)Oc2ccccc21 (stereo not drawn),-3.23,"0.116 µM [rising, full curve]",–
COC(=O)c1ccc(COC(=O)c2cccn2C)o1,20.7,"4.11 µM [rising, full curve]","0.0291 µM [rising, full curve, poor fit]"
CSc1nsc(SCC(=O)NCc2ccc(C)cc2)n1,-10.1,–,–
Clc1ccc(SCCOCCN2CCc3ccccc3C2)cc1,-52,"0.92 µM [falling, full curve, poor fit]","29.1 µM [falling, single point]"
CC(C)(C)C(=O)CSc1nnc(-c2cccs2)n1CC1CCCO1 (stereo not drawn),–,–,"0.146 µM [falling, full curve, poor fit]"
